Assay results taken from PubChem BioAssay AID1347131 (National Center for Advancing Translational Sciences (NCATS), 2019).
About 2,000 (0.49%) of roughly 410,000 compounds were called active. The shares of active, inactive and inconclusive entries below differ from those in the screen. The call rests on the fitted dose curve; tested in HEK293 reporter line. Potencies of inconclusive entries are doubtful fits and often do not repeat.

Assay: qHTS Assay for Foot and Mouth Disease Virus Antivirals: Primary Screen against the MLPCN compound library; further: nearly all actives have a fitted effect of over 55% in size
Conditions: FMDV antiviral cell-based qHTS; activity, negative = inhibition: at 57.9 µM (top of the series)
Potency means the concentration at half of the fitted maximal effect.

Row | Compound | Potency | activity, negative = inhibition
1 | C=C1C(=O)C=C[C@]2(C)C[C@@H]3OC(=O)[C@](C)(O)[C@H]3C[C@@H]12 | inconclusive: 28.2 µM [inhibitor, partial curve, poor fit] | –
2 | CN(C)c1ccc(C=Nc2ccccc2C(N)=O)cc1 | inconclusive: 12.6 µM [inhibitor, single point] | –
3 | CCC(C)Nc1nc(-c2cccc(OC)c2O)nc2ccccc12 (configuration not stated) | inconclusive: 28.2 µM [inhibitor, partial curve, poor fit] | –
4 | COc1cc(/C=N/O)ccc1OCc1ccc(C(=O)O)cc1 | inconclusive: 4.47 µM [inhibitor, full curve, poor fit] | –
5 | CNC(=O)c1ccc(Nc2nnc(-c3ccc(C)c(S(=O)(=O)N4CCOCC4)c3)c3ccccc23)cc1 | – | inconclusive: -30.3% [inhibitor]
6 | COc1ccc(-c2cc3c(nn2)-c2ccccc2C3=O)cc1 | inconclusive: 10 µM [inhibitor, partial curve, poor fit] | –
7 | O=C(NCc1ccncc1)c1ccc(N2CCCC2)c([N+](=O)[O-])c1 | inconclusive: 3.55 µM [inhibitor, full curve] | –
8 | CCOc1cc(NC(=O)C2CC2)c(OCC)cc1NC(=O)c1ccccn1 | inconclusive: 10 µM [inhibitor, partial curve, poor fit] | –
9 | CC(C)[C@H](NC(=O)OC(C)(C)C)c1nnc(S(=O)(=O)Cc2c(F)cccc2Cl)o1 | inconclusive: 35.5 µM [inhibitor, single point] | –
10 | CC(=O)OCCNc1cc(Sc2nc3ccccc3[nH]2)c2nonc2c1[N+](=O)[O-] | inconclusive: 35.5 µM [inhibitor, single point] | –
11 | CCc1ccc(NC(=O)CSc2nc3ccsc3c(=O)n2C(C)CC)cc1 (configuration not stated) | inconclusive: 15.8 µM [inhibitor, partial curve] | –
12 | O=C(O)CCCCCN1C(=O)C2CCCCC2C1=O (configuration not stated) | inconclusive: 3.98 µM [inhibitor, partial curve, poor fit] | –
13 | CC(=O)Nc1cc(-c2ccc(C(=O)NC3CC3)cc2)cn2c(-c3cccc(C(F)(F)F)c3)cnc12 | inconclusive: 25.1 µM [inhibitor, partial curve, poor fit] | –
14 | Cc1[nH]c2ccccc2c(=O)c1C(=O)/C=C/c1ccccc1 | inconclusive: 12.6 µM [inhibitor, partial curve, poor fit] | –
15 | Cc1ccc(NC(=O)c2cccc(OCc3c(C)noc3C)c2)c(C)c1 | inconclusive: 12.6 µM [inhibitor, partial curve] | –
16 | O=C(Nc1ccc(NC(=O)c2ccco2)nc1)c1ccccn1 | inconclusive: 20 µM [inhibitor, single point] | –
17 | O=C(CCCc1ccccc1)c1ccc2c(c1)OCCO2 | inconclusive: 7.94 µM [inhibitor, full curve, poor fit] | –
18 | COc1ccc(NC(=O)c2sc3nc(-c4cc5cccc(OC)c5oc4=O)[nH]c(=O)c3c2C)cc1 | – | inactive: -12.9%
19 | COc1cc(NC(=O)c2cnn3c(C(F)F)cc(C4CC4)nc23)c(OC)cc1Cl | inconclusive: 1.78 µM [inhibitor, full curve] | –

Taken from above:
Potency with `CN(C)c1ccc(C=Nc2ccccc2C(N)=O)cc1` reads inconclusive: 12.6 µM [inhibitor, single point]
Potency with `COc1cc(/C=N/O)ccc1OCc1ccc(C(=O)O)cc1` reads inconclusive: 4.47 µM [inhibitor, full curve, poor fit]

(cont.)

Row | Compound | Potency | activity, negative = inhibition
20 | CC(Oc1ccc(Cl)cc1Cl)c1nc(-c2ccc(NC(=O)c3ccncc3)cc2)no1 (configuration not stated) | inconclusive: 15.8 µM [inhibitor, partial curve, poor fit] | –
21 | COc1ccccc1N1CCN(C(=O)c2cc(-c3ccccc3)nc3c2cnn3C(C)C)CC1 | inconclusive: 2 µM [inhibitor, partial curve, poor fit] | –
22 | O=C(Nc1ccc(N2CCOCC2)c(Cl)c1)c1cccc(F)c1 | inconclusive: 39.8 µM [inhibitor, single point] | –
23 | O=C(Nc1nccs1)C1CCN(S(=O)(=O)c2cccnc2)CC1 | inconclusive: 1.41 µM [inhibitor, full curve] | –
24 | Cc1cc(N2CCCCC2)nc(NCc2ccccc2)n1 | inconclusive: 31.6 µM [inhibitor, single point] | –
25 | Cc1cc(C(=O)COC(=O)c2ccc3c(c2)NC(=O)CS3)c(C)n1CC1CCCO1 (configuration not stated) | inconclusive: 28.2 µM [inhibitor, single point] | –
26 | COc1ccc(-c2ccc3c(c2)CN(C(=O)C(C)(C)C)Cc2cnnn2-3)cc1 | – | inactive: -30.7%
27 | COc1ccc(S(=O)(=O)/N=C2\C=C(Nc3ccc(O)cc3)C(=O)c3ccccc32)cc1 | inconclusive: 7.94 µM [inhibitor, partial curve, poor fit] | –
28 | CN(CC(=O)Nc1cccc(F)c1)C(=O)c1cccc(S(=O)(=O)N2CCN(Cc3ccccc3)CC2)c1 | inconclusive: 15.8 µM [inhibitor, single point] | –
29 | Cc1ccccc1Cn1cc(/C=N/n2cnnc2)c2ccccc21 | inconclusive: 25.1 µM [inhibitor, partial curve, poor fit] | –
30 | c1ccc(Cn2c(CNc3nc4ccccc4n3CCN3CCOCC3)nc3ccccc32)cc1 | inconclusive: 15.8 µM [inhibitor, partial curve] | –
31 | c1csc(Cn2nnnc2CN2CCN(c3nc4ccccc4s3)CC2)c1 | active: 17.8 µM | –
32 | CCN1/C(=C/c2ccc3cc(C)ccc3[n+]2CC)Sc2ccccc21 | inconclusive: 20 µM [inhibitor, partial curve, poor fit] | –
33 | Cc1cc(C)c[n+](C2=C([O-])c3ccccc3C(=O)/C2=N\S(=O)(=O)c2cccs2)c1 | inconclusive: 39.8 µM [inhibitor, partial curve, poor fit] | –
34 | CCc1nc2sc3ccccc3c(=O)c2c(=O)n1Cc1ccc(OC)cc1 | inconclusive: 14.1 µM [inhibitor, partial curve, poor fit] | –
35 | Cc1cc2occ(CC(=O)Nc3nnc(C4CC4)s3)c2cc1C | – | inconclusive: -30.2% [inhibitor]
36 | O=C(Nc1ccc(F)cc1)C1CCCN(S(=O)(=O)c2ccc(-n3cnnn3)cc2)C1 (configuration not stated) | inconclusive: 5.62 µM [inhibitor, partial curve, poor fit] | –
37 | CN(C)c1ccc(CC(=O)N2CCCCC2c2cc(C(=O)Nc3ccccc3Cl)no2)cc1 (configuration not stated) | inconclusive: 35.5 µM [inhibitor, partial curve, poor fit] | –
